The values that follow come from PMC7156099.

For this assay, the target named is T1, AKAP1 (human (endogenous in A549 and U2OS)) (UniProt Q92667).
T1 sequence: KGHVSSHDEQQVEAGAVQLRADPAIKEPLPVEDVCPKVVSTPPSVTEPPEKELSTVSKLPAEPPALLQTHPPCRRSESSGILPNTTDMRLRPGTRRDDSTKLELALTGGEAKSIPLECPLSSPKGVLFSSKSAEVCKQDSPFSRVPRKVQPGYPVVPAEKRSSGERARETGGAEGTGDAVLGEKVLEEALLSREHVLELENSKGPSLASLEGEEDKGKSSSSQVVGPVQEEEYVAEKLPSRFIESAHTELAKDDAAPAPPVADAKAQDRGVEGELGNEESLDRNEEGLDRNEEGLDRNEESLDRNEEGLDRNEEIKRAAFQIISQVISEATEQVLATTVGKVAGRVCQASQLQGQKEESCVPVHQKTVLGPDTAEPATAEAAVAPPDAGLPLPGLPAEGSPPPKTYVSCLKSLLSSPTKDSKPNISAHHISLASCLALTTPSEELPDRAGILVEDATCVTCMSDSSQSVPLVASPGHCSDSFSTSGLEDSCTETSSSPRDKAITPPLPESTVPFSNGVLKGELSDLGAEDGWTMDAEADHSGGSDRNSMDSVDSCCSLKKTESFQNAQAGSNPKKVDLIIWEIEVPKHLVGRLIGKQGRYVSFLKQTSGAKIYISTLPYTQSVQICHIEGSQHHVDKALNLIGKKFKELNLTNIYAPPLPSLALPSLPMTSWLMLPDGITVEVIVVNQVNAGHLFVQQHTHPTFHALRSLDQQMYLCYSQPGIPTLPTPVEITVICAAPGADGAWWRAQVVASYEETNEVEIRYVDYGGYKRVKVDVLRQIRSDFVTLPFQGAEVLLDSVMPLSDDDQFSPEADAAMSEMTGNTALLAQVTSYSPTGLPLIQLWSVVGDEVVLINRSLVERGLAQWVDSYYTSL
The assay can be described thus: co-IP; endogenous AKAP1 immunoprecipitated with anti-AKAP1 antibody (D9C5) and protein A/G agarose from lysate of mitochondria (0.3% NP40, 150 mM NaCl, 50 mM Tris pH 7.5) of U2OS cells; immunoblot.

These are yes or no findings as the source states them, for the method shown. Binding seen in cells or lysates may run through a third protein.

B1: SESN2 (protein, UniProt P58004 1-480)
chain: MIVADSECRAELKDYLRFAPGGVGDSGPGEEQRESRARRGPRGPSAFIPVEEVLREGAESLEQHLGLEALMSSGRVDNLAVVMGLHPDYFTSFWRLHYLLLHTDGPLASSWRHYIAIMAAARHQCSYLVGSHMAEFLQTGGDPEWLLGLHRAPEKLRKLSEINKLLAHRPWLITKEHIQALLKTGEHTWSLAELIQALVLLTHCHSLSSFVFGCGILPEGDADGSPAPQAPTPPSEQSSPPSRDPLNNSGGFESARDVEALMERMQQLQESLLRDEGTSQEEMESRFELEKSESLLVTPSADILEPSPHPDMLCFVEDPTFGYEDFTRRGAQAPPTFRAQDYTWEDHGYSLIQRLYPEGGQLLDEKFQAAYSLTYNTIAMHSGVDTSVLRRAIWNYIHCVFGIRYDDYDYGEVNQLLERNLKVYIKTVACYPEKTTRRMYNLFWRHFRHSEKVHVNLLLLEARMQAALLYALRAITRYMT
Regarding B1, the binding result was “no binding”.

B2: Mios (protein, UniProt Q9NXC5 1-875)
chain: MSGTKPDILWAPHHVDRFVVCDSELSLYHVESTVNSELKAGSLRLSEDSAATLLSINSDTPYMKCVAWYLNYDPECLLAVGQANGRVVLTSLGQDHNSKFKDLIGKEFVPKHARQCNTLAWNPLDSNWLAAGLDKHRADFSVLIWDICSKYTPDIVPMEKVKLSAGETETTLLVTKPLYELGQNDACLSLCWLPRDQKLLLAGMHRNLAIFDLRNTSQKMFVNTKAVQGVTVDPYFHDRVASFYEGQVAIWDLRKFEKPVLTLTEQPKPLTKVAWCPTRTGLLATLTRDSNIIRLYDMQHTPTPIGDETEPTIIERSVQPCDNYIASFAWHPTSQNRMIVVTPNRTMSDFTVFERISLAWSPITSLMWACGRHLYECTEEENDNSLEKDIATKMRLRALSRYGLDTEQVWRNHILAGNEDPQLKSLWYTLHFMKQYTEDMDQKSPGNKGSLVYAGIKSIVKSSLGMVESSRHNWSGLDKQSDIQNLNEERILALQLCGWIKKGTDVDVGPFLNSLVQEGEWERAAAVALFNLDIRRAIQILNEGASSEKGDLNLNVVAMALSGYTDEKNSLWREMCSTLRLQLNNPYLCVMFAFLTSETGSYDGVLYENKVAVRDRVAFACKFLSDTQLNRYIEKLTNEMKEAGNLEGILLTGLTKDGVDLMESYVDRTGDVQTASYCMLQGSPLDVLKDERVQYWIENYRNLLDAWRFWHKRAEFDIHRSKLDPSSKPLAQVFVSCNFCGKSISYSCSAVPHQGRGFSQYGVSGSPTKSKVTSCPGCRKPLPRCALCLINMGTPVSSCPGGTKSDEKVDLSKDKKLAQFNNWFTWCHNCRHGGHAGHMLSWFRDHAECPVSACTCKCMQLDTTGNLVPAETVQP
B2: the binding entry is on record as “no binding”.
